Consider nine molecules from patent US20180320217A1, “METHODS FOR SAMPLING AND MEASURING ORAL LAVAGE PROTEINS” (The Procter & Gamble Company, priority 2017, published 2018).

This series deals with proteins in oral lavage. Nature of the series: Abundance of proteins in human oral lavage (SomaLogic), TABLE 1. In kind it is in vivo. Conditions: for Means (Original Scale) High bleeder BL / Means (Original Scale) High bleeder W4 / Means (Original Scale) Low bleeder BL: abundance in oral lavage; for Means (Original Scale) High bleeder BL: high bleeders (gingivitis); for Means (Original Scale) High bleeder BL / Means (Original Scale) Low bleeder BL: baseline; for Means (Original Scale) High bleeder W4 / Fold Change High bleeder W4 vs High bleeder BL: high bleeders; for Means (Original Scale) High bleeder W4: week 4 of investigative products; for Means (Original Scale) Low bleeder BL: low bleeders (healthy); for Fold Change High bleeder BL vs Low bleeder BL / Fold Change High bleeder W4 vs High bleeder BL: oral lavage; for Fold Change High bleeder BL vs Low bleeder BL: high bleeders vs low bleeders at baseline; for Fold Change High bleeder W4 vs High bleeder BL: week 4 of investigative products vs baseline.

B1: Macrophage metalloelastase (protein, UniProt P39900 106-470, looked up)
Macrophage metalloelastase: GPVWRKHYITYRINNYTPDMNREDVDYAIRKAFQVWSNVTPLKFSKINTGMADILVVFARGAHGDFHAFDGKGGILAHAFGPGSGIGGDAHFDEDEFWTTHSGGTNLFLTAVHEIGHSLGLGHSSDPKAVMFPTYKYVDINTFRLSADDIRGIQSLYGDPKENQRLPNPDNSEPALCDPNLSFDAVTTVGNKIFFFKDRFFWLKVSERPKTSVNLISSLWPTLPSGIEAAYEIEARNQVFLFKDDKYWLISNLRPEPNYPKSIHSFGFPNFVKKIDAAVFNPRFYRTYFFVDNQYWRYDERRQMMDPGYPKLITKNFQGIGPKIDAVFYSKNKYYYFFQGSNQFEYDFLLQRITKTLKSNSWFGC
In the case of B1, the “Means (Original Scale) High bleeder BL” value turned out to be 16571, the “Means (Original Scale) High bleeder W4” value is on record as 5282, the “Means (Original Scale) Low bleeder BL” value is 2096 and the “Fold Change High bleeder BL vs Low bleeder BL” value (shortened to “Fold Change High bleeder BL”) was 6.43. Also, the “Fold Change High bleeder W4 vs High bleeder BL” value (shortened to “Fold Change High bleeder W4”) was 0.48.

B2: N-acylethanolamine-hydrolyzing acid amidase (protein, UniProt Q02083 29-359, looked up)
N-acylethanolamine-hydrolyzing …: SPPAAPRFNVSLDSVPELRWLPVLRHYDLDLVRAAMAQVIGDRVPKWVHVLIGKVVLELERFLPQPFTGEIRGMCDFMNLSLADCLLVNLAYESSVFCTSIVAQDSRGHIYHGRNLDYPFGNVLRKLTVDVQFLKNGQIAFTGTTFIGYVGLWTGQSPHKFTVSGDERDKGWWWENAIAALFRRHIPVSWLIRATLSESENFEAAVGKLAKTPLIADVYYIVGGTSPREGVVITRNRDGPADIWPLDPLNGAWFRVETNYDHWKPAPKEDDRRTSAIKALNATGQANLSLEALFQILSVVPVYNNFTIYTTVMSAGSPDKYMTRIRNPSRK
As for B2, the “Means (Original Scale) High bleeder BL” value stood at 1737, the “Means (Original Scale) High bleeder W4” value stood at 606, the “Means (Original Scale) Low bleeder BL” value came to 121 and the “Fold Change High bleeder BL” value is reported as 6.62. The “Fold Change High bleeder W4” value came to 0.52.

B3: Leukemia inhibitory factor receptor (protein, UniProt P42702 45-1097, looked up)
Leukemia inhibitory factor …: QKKGAPHDLKCVTNNLQVWNCSWKAPSGTGRGTDYEVCIENRSRSCYQLEKTSIKIPALSHGDYEITINSLHDFGSSTSKFTLNEQNVSLIPDTPEILNLSADFSTSTLYLKWNDRGSVFPHRSNVIWEIKVLRKESMELVKLVTHNTTLNGKDTLHHWSWASDMPLECAIHFVEIRCYIDNLHFSGLEEWSDWSPVKNISWIPDSQTKVFPQDKVILVGSDITFCCVSQEKVLSALIGHTNCPLIHLDGENVAIKIRNISVSASSGTNVVFTTEDNIFGTVIFAGYPPDTPQQLNCETHDLKEIICSWNPGRVTALVGPRATSYTLVESFSGKYVRLKRAEAPTNESYQLLFQMLPNQEIYNFTLNAHNPLGRSQSTILVNITEKVYPHTPTSFKVKDINSTAVKLSWHLPGNFAKINFLCEIEIKKSNSVQEQRNVTIKGVENSSYLVALDKLNPYTLYTFRIRCSTETFWKWSKWSNKKQHLTTEASPSKGPDTWREWSSDGKNLIIYWKPLPINEANGKILSYNVSCSSDEETQSLSEIPDPQHKAEIRLDKNDYIISVVAKNSVGSSPPSKIASMEIPNDDLKIEQVVGMGKGILLTWHYDPNMTCDYVIKWCNSSRSEPCLMDWRKVPSNSTETVIESDEFRPGIRYNFFLYGCRNQGYQLLRSMIGYIEELAPIVAPNFTVEDTSADSILVKWEDIPVEELRGFLRGYLFYFGKGERDTSKMRVLESGRSDIKVKNITDISQKTLRIADLQGKTSYHLVLRAYTDGGVGPEKSMYVVTKENSVGLIIAILIPVAVAVIVGVVTSILCYRKREWIKETFYPDIPNPENCKALQFQKSVCEGSSALKTLEMNPCTPNNVEVLETRSAFPKIEDTEIISPVAERPEDRSDAEPENHVVVSYCPPIIEEEIPNPAADEAGGTAQVIYIDVQSMYQPQAKPEEEQENDPVGGAGYKPQMHLPINSTVEDIAAEEDLDKTAGYRPQANVNTWNLVSPDSPRSIDSNSEIVSFGSPCSINSRQFLIPPKDEDSPKSNGGGWSFTNFFQNKPND
For B3, the “Means (Original Scale) High bleeder BL” value is 1001, the “Means (Original Scale) High bleeder W4” value was determined as 562, the “Means (Original Scale) Low bleeder BL” value was determined as 228 and the “Fold Change High bleeder BL” value was found to be 3.76. In addition, the “Fold Change High bleeder W4” value was 0.58.

B4: Mitogen-activated protein kinase 11 (protein, UniProt Q15759 1-364, looked up)
Mitogen-activated protein …: MSGPRAGFYRQELNKTVWEVPQRLQGLRPVGSGAYGSVCSAYDARLRQKVAVKKLSRPFQSLIHARRTYRELRLLKHLKHENVIGLLDVFTPATSIEDFSEVYLVTTLMGADLNNIVKCQALSDEHVQFLVYQLLRGLKYIHSAGIIHRDLKPSNVAVNEDCELRILDFGLARQADEEMTGYVATRWYRAPEIMLNWMHYNQTVDIWSVGCIMAELLQGKALFPGSDYIDQLKRIMEVVGTPSPEVLAKISSEHARTYIQSLPPMPQKDLSSIFRGANPLAIDLLGRMLVLDSDQRVSAAEALAHAYFSQYHDPEDEPEAEPYDESVEAKERTLEEWKELTYQEVLSFKPPEPPKPPGSLEIEQ
As for B4, the “Means (Original Scale) High bleeder BL” value was determined as 239, the “Means (Original Scale) High bleeder W4” value is 108, the “Means (Original Scale) Low bleeder BL” value worked out at 55 and the “Fold Change High bleeder BL” value worked out at 3.23. Moreover, the “Fold Change High bleeder W4” value was 0.58.

B5: Lithostathine-1-alpha (protein, UniProt P05451 23-166, looked up)
Lithostathine-1-alpha: QEAQTELPQARISCPEGTNAYRSYCYYFNEDRETWVDADLYCQNMNSGNLVSVLTQAEGAFVASLIKESGTDDFNVWIGLHDPKKNRRWHWSSGSLVSYKSWGIGAPSSVNPGYCVSLTSSTGFQKWKDVPCEDKFSFVCKFKN
For B5, the “Means (Original Scale) High bleeder BL” value came out at 7884, the “Means (Original Scale) High bleeder W4” value amounted to 4725, the “Means (Original Scale) Low bleeder BL” value is 5643 and the “Fold Change High bleeder BL” value was 1.81. The “Fold Change High bleeder W4” value is recorded as 0.58.

B6: Muellerian-inhibiting factor (protein, UniProt P03971 452-560, looked up)
Muellerian-inhibiting factor: SAGATAADGPCALRELSVDLRAERSVLIPETYQANNCQGVCGWPQSDRNPRYGNHVVLLLKMQVRGAALARPPCCVPTAYAGKLLISLSEERISAHHVPNMVATECGCR
On to B6, for which the “Means (Original Scale) High bleeder BL” value stood at 1634, the “Means (Original Scale) High bleeder W4” value stood at 1097, the “Means (Original Scale) Low bleeder BL” value turned out to be 671 and the “Fold Change High bleeder BL” value is listed as 2.57. For the same molecule, the “Fold Change High bleeder W4” value is listed as 0.72.

B7: Matrilin-2 (protein, UniProt O00339 24-956, looked up)
Matrilin-2: RERSRGRSISRGRHARTHPQTALLESSCENKRADLVFIIDSSRSVNTHDYAKVKEFIVDILQFLDIGPDVTRVGLLQYGSTVKNEFSLKTFKRKSEVERAVKRMRHLSTGTMTGLAIQYALNIAFSEAEGARPLRENVPRVIMIVTDGRPQDSVAEVAAKARDTGILIFAIGVGQVDFNTLKSIGSEPHEDHVFLVANFSQIETLTSVFQKKLCTAHMCSTLEHNCAHFCINIPGSYVCRCKQGYILNSDQTTCRIQDLCAMEDHNCEQLCVNVPGSFVCQCYSGYALAEDGKRCVAVDYCASENHGCEHECVNADGSYLCQCHEGFALNPDKKTCTKIDYCASSNHGCQHECVNTDDSYSCHCLKGFTLNPDKKTCRRINYCALNKPGCEHECVNMEESYYCRCHRGYTLDPNGKTCSRVDHCAQQDHGCEQLCLNTEDSFVCQCSEGFLINEDLKTCSRVDYCLLSDHGCEYSCVNMDRSFACQCPEGHVLRSDGKTCAKLDSCALGDHGCEHSCVSSEDSFVCQCFEGYILREDGKTCRRKDVCQAIDHGCEHICVNSDDSYTCECLEGFRLAEDGKRCRRKDVCKSTHHGCEHICVNNGNSYICKCSEGFVLAEDGRRCKKCTEGPIDLVFVIDGSKSLGEENFEVVKQFVTGIIDSLTISPKAARVGLLQYSTQVHTEFTLRNFNSAKDMKKAVAHMKYMGKGSMTGLALKHMFERSFTQGEGARPLSTRVPRAAIVFTDGRAQDDVSEWASKAKANGITMYAVGVGKAIEEELQEIASEPTNKHLFYAEDFSTMDEISEKLKKGICEALEDSDGRQDSPAGELPKTVQQPTESEPVTINIQDLLSCSNFAVQHRYLFEEDNLLRSTQKLSHSTKPSGSPLEEKHDQCKCENLIMFQNLANEEVRKLTQRLEEMTQRMEALENRLRYR
As for B7, the “Means (Original Scale) High bleeder BL” value worked out at 17458, the “Means (Original Scale) High bleeder W4” value amounted to 8756, the “Means (Original Scale) Low bleeder BL” value worked out at 2992 and the “Fold Change High bleeder BL” value is reported as 7.28. Further, the “Fold Change High bleeder W4” value came to 0.63.

B8: NAD-dependent protein deacetylase sirtuin-2 (protein, UniProt Q8IXJ6 2-389, looked up)
NAD-dependent protein …: AEPDPSHPLETQAGKVQEAQDSDSDSEGGAAGGEADMDFLRNLFSQTLSLGSQKERLLDELTLEGVARYMQSERCRRVICLVGAGISTSAGIPDFRSPSTGLYDNLEKYHLPYPEAIFEISYFKKHPEPFFALAKELYPGQFKPTICHYFMRLLKDKGLLLRCYTQNIDTLERIAGLEQEDLVEAHGTFYTSHCVSASCRHEYPLSWMKEKIFSEVTPKCEDCQSLVKPDIVFFGESLPARFFSCMQSDFLKVDLLLVMGTSLQVQPFASLISKAPLSTPRLLINKEKAGQSDPFLGMIMGLGGGMDFDSKKAYRDVAWLGECDQGCLALAELLGWKKELEDLVRREHASIDAQSGAGVPNPSTSASPKKSPPPAKDEARTTEREKPQ
As to B8, the “Means (Original Scale) High bleeder BL” value is 7030, the “Means (Original Scale) High bleeder W4” value is listed as 4631, the “Means (Original Scale) Low bleeder BL” value is given as 3074 and the “Fold Change High bleeder BL” value stood at 2.21. Further, the “Fold Change High bleeder W4” value was 0.67.

B9: Macrophage colony-stimulating factor 1 (protein, UniProt P09603 33-554, looked up)
Macrophage colony-stimulating …: EEVSEYCSHMIGSGHLQSLQRLIDSQMETSCQITFEFVDQEQLKDPVCYLKKAFLLVQDIMEDTMRFRDNTPNAIAIVQLQELSLRLKSCFTKDYEEHDKACVRTFYETPLQLLEKVKNVFNETKNLLDKDWNIFSKNCNNSFAECSSQDVVTKPDCNCLYPKAIPSSDPASVSPHQPLAPSMAPVAGLTWEDSEGTEGSSLLPGEQPLHTVDPGSAKQRPPRSTCQSFEPPETPVVKDSTIGGSPQPRPSVGAFNPGMEDILDSAMGTNWVPEEASGEASEIPVPQGTELSPSRPGGGSMQTEPARPSNFLSASSPLPASAKGQQPADVTGTALPRVGPVRPTGQDWNHTPQKTDHPSALLRDPPEPGSPRISSLRPQGLSNPSTLSAQPQLSRSHSSGSVLPLGELEGRRSTRDRRSPAEPEGGPASEGAARPLPRFNSVPLTDTGHERQSEGSFSPQLQESVFHLLVPSVILVLLAVGGLLFYRWRRRSHQEPQRADSPLEQPEGSPLTQDDRQVELPV
With B9, the “Means (Original Scale) High bleeder BL” value was 6274, the “Means (Original Scale) High bleeder W4” value was 4163, the “Means (Original Scale) Low bleeder BL” value is 2422 and the “Fold Change High bleeder BL” value is 2.61. The “Fold Change High bleeder W4” value turned out to be 0.66.
